Experimental findings from publication PMC12165065 are described below.

Amino acid sequences for entries named in this document (tags omitted).
UniProt Q99873: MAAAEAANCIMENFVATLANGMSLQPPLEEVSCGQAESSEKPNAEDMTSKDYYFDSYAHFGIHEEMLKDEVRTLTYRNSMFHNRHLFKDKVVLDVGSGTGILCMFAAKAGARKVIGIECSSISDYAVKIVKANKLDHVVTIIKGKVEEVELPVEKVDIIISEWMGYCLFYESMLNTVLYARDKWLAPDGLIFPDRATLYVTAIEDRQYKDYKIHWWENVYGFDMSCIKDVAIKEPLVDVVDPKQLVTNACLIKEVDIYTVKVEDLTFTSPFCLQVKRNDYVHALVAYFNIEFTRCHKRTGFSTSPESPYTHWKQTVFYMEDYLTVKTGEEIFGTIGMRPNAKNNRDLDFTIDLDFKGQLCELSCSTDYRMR
UniProt Q92922: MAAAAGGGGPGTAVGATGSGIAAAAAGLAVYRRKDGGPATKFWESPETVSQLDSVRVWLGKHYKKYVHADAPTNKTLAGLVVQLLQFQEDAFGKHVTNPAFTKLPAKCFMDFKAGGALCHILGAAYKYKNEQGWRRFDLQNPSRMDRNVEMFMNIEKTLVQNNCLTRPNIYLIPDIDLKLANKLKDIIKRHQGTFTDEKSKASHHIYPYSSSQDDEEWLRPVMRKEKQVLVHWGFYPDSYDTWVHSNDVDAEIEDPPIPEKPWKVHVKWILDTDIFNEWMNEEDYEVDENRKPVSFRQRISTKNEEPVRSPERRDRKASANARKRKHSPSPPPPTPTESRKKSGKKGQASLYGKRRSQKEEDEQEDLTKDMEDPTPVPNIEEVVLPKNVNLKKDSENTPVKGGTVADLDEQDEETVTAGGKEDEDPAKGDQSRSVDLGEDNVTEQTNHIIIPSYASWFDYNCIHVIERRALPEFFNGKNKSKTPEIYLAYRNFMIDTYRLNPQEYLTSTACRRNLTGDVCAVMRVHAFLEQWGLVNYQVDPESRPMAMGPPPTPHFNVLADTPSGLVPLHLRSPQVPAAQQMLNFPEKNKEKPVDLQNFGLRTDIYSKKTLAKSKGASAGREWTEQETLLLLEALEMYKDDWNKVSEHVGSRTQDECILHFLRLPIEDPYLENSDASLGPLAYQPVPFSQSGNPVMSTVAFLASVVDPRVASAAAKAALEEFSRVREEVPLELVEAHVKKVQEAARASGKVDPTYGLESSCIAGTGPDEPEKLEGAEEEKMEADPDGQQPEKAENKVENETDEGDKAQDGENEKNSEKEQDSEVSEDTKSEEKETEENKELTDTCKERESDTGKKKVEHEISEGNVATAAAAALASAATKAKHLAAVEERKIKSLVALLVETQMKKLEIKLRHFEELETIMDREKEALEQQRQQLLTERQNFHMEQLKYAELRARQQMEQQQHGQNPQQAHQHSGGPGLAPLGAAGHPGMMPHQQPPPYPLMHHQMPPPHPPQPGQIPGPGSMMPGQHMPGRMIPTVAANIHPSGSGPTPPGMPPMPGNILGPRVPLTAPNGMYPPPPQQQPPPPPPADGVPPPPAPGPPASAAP

Results are given in words; binding and its absence hold for the method and conditions named. Binding seen in cells or lysates may run through a third protein. Some entries that bind do so weakly or less than the wild type.

Experiment [1] deals with protein arginine methyltransferase 1 (PRMT1), endogenous (human (endogenous in LIU-LSC-1)) (UniProt Q99873). As to the kind of experiment: co-IP; endogenous proteins in LIU-LSC-1 lysate; PRMT1, SMARCC1 or IgG antibodies on protein G beads, overnight at 4 °C, three washes, immunoblot; also in cells transfected for 48 h with siRNA against SMARCA4, BRD7, SMARCD3, SMARCE1 or siNC. Background: Immunoblotting shows a protein as a band on a membrane.

In experiment [2] the target is SWI/SNF related, matrix associated, actin dependent regulator of chromatin subfamily C member 1 (SMARCC1), endogenous (human (endogenous in LIU-LSC-1)) (UniProt Q92922). The description is as above.

“SWI/SNF related, matrix associated, actin dependent regulator of chromatin subfamily C member 1 (SMARCC1), endogenous (from UniProt Q92922 1-1105)”: the binding entry in experiment [1] is listed as “binds”.

“protein arginine methyltransferase 1 (PRMT1), endogenous (from UniProt Q99873 1-371)”: in experiment [2], the binding entry is reported as “binds”.
